These are yes or no findings as the source states them, for the method shown. Binding seen in cells or lysates may run through a third protein. A yes stands for co-enrichment or nearness to the bait. Other partners may have been found.
Columns and labels:
[1] = target: His6-MBP-FtsH (E. coli) (UniProt P0AAI3); experiment: affinity purification with mass spectrometry; His6-MBP-FtsH overproduced in E. coli BL21 Δarg/Δlys grown at 30°C (slow), 37°C (medium) or 40°C (fast growth); Ni-NTA affinity purification from the lysate; co-purified proteins identified by LC-MS/MS with a super-SILAC standard; enriched >2-fold over the His6-MBP empty-vector control, p<0.05, or 'FtsH only'
[2] = target: T1, Strep-LpxC (E. coli) (UniProt P0A725); experiment: affinity purification with mass spectrometry; Strep-LpxC overproduced in E. coli BL21 Δarg/Δlys grown at 30°C (slow), 37°C (medium) or 40°C (fast growth); Strep-tactin affinity purification from the lysate; co-purified proteins identified by LC-MS/MS with a super-SILAC standard; enriched >2-fold over the Strep-tag empty-vector control, p<0.05, or 'LpxC only'
T1 sequence: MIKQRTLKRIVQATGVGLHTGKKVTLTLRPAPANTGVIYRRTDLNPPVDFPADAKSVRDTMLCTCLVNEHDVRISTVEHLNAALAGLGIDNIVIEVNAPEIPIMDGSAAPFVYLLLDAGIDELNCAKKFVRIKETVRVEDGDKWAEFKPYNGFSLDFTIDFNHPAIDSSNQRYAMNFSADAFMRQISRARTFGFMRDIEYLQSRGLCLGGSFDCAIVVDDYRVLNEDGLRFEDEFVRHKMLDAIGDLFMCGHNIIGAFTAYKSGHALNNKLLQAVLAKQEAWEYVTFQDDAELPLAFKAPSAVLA

By UniProt entry, the sequences of proteins in these tests, tags left out. Where a name states a change or a piece, a line headed by the entry shows the natural chain unless it says otherwise.
UniProt P0AAI3: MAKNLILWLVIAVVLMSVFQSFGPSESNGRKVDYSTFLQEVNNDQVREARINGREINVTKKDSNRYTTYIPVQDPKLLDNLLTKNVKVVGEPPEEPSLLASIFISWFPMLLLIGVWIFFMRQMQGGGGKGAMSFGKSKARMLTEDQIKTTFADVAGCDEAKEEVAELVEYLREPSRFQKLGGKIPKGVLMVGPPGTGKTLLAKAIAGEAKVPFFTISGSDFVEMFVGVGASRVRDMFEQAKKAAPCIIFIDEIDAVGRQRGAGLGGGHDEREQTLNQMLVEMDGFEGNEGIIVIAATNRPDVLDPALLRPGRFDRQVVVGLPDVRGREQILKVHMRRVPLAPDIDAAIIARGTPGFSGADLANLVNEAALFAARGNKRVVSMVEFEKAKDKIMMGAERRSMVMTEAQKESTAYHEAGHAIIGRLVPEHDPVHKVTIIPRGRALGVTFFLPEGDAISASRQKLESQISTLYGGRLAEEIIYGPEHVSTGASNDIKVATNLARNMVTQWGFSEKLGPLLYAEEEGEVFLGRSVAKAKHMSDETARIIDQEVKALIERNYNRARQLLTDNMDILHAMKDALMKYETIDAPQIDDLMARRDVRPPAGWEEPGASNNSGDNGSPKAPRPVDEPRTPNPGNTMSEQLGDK

B1: Psd (enzyme, UniProt P0A8K1 1-322)
chain: MLNSFKLSLQYILPKLWLTRLAGWGASKRAGWLTKLVIDLFVKYYKVDMKEAQKPDTASYRTFNEFFVRPLRDEVRPIDTDPNVLVMPADGVISQLGKIEEDKILQAKGHNYSLEALLAGNYLMADLFRNGTFVTTYLSPRDYHRVHMPCNGILREMIYVPGDLFSVNHLTAQNVPNLFARNERVICLFDTEFGPMAQILVGATIVGSIETVWAGTITPPREGIIKRWTWPAGENDGSVALLKGQEMGRFKLGSTVINLFAPGKVNLVEQLESLSVTKIGQPLAVSTETFVTPDAEPAPLPAEEIEAEHDASPLVDDKKDQV
[1]
  binding: binds
[2]
  binding: binds

B2: FabH (enzyme, UniProt P0A6R0 1-317)
chain: MYTKIIGTGSYLPEQVRTNADLEKMVDTSDEWIVTRTGIRERHIAAPNETVSTMGFEAATRAIEMAGIEKDQIGLIVVATTSATHAFPSAACQIQSMLGIKGCPAFDVAAACAGFTYALSVADQYVKSGAVKYALVVGSDVLARTCDPTDRGTIIIFGDGAGAAVLAASEEPGIISTHLHADGSYGELLTLPNADRVNPENSIHLTMAGNEVFKVAVTELAHIVDETLAANNLDRSQLDWLVPHQANLRIISATAKKLGMSMDNVVVTLDRHGNTSAASVPCALDEAVRDGRIKPGQLVLLEAFGGGFTWGSALVRF
[1]
  binding: binds
[2]
  binding: binds

B3: BasR (protein, UniProt P30843 1-222)
chain: MKILIVEDDTLLLQGLILAAQTEGYACDSVTTARMAEQSLEAGHYSLVVLDLGLPDEDGLHFLARIRQKKYTLPVLILTARDTLTDKIAGLDVGADDYLVKPFALEELHARIRALLRRHNNQGESELIVGNLTLNMGRRQVWMGGEELILTPKEYALLSRLMLKAGSPVHREILYNDIYNWDNEPSTNTLEVHIHNLRDKVGKARIRTVRGFGYMLVANEEN
[1]
  binding: binds
[2]
  binding: binds

B4: EptA (enzyme, UniProt P30845 1-547)
chain: MLKRLLKRPSLNLLAWLLLAAFYISICLNIAFFKQVLQALPLDSLHNVLVFLSMPVVAFSVINIVLTLSSFLWLNRPLACLFILVGAAAQYFIMTYGIVIDRSMIANIIDTTPAESYALMTPQMLLTLGFSGVLAALIACWIKIKPATSRLRSVLFRGANILVSVLLILLVAALFYKDYASLFRNNKELVKSLSPSNSIVASWSWYSHQRLANLPLVRIGEDAHRNPLMQNEKRKNLTILIVGETSRAENFSLNGYPRETNPRLAKDNVVYFPNTASCGTATAVSVPCMFSDMPREHYKEELAQHQEGVLDIIQRAGINVLWNDNDGGCKGACDRVPHQNVTALNLPDQCINGECYDEVLFHGLEEYINNLQGDGVIVLHTIGSHGPTYYNRYPPQFRKFTPTCDTNEIQTCTKEQLVNTYDNTLVYVDYIVDKAINLLKEHQDKFTTSLVYLSDHGESLGENGIYLHGLPYAIAPDSQKQVPMLLWLSEDYQKRYQVDQNCLQKQAQTQHYSQDNLFSTLLGLTGVETKYYQAADDILQTCRRVSE
[1]
  binding: binds
[2]
  binding: binds

B5: EptC (enzyme, UniProt P0CB39 1-577)
chain: MHSTEVQAKPLFSWKALGWALLYFWFFSTLLQAIIYISGYSGTNGIRDSLLFSSLWLIPVFLFPKRIKIIAAVIGVVLWAASLAALCYYVIYGQEFSQSVLFVMFETNTNEASEYLSQYFSLKIVLIALAYTAVAVLLWTRLRPVYIPKPWRYVVSFALLYGLILHPIAMNTFIKNKPFEKTLDNLASRMEPAAPWQFLTGYYQYRQQLNSLTKLLNENNALPPLANFKDESGNEPRTLVLVIGESTQRGRMSLYGYPRETTPELDALHKTDPNLTVFNNVVTSRPYTIEILQQALTFANEKNPDLYLTQPSLMNMMKQAGYKTFWITNQQTMTARNTMLTVFSRQTDKQYYMNQQRTQSAREYDTNVLKPFQEVLNDPAPKKLIIVHLLGTHIKYKYRYPENQGKFDGNTDHVPPGLNAEELESYNDYDNANLYNDHVVASLIKDFKAANPNGFLVYFSDHGEEVYDTPPHKTQGRNEDNPTRHMYTIPFLLWTSEKWQATHPRDFSQDVDRKYSLAELIHTWSDLAGLSYDGYDPTRSVVNPQFKETTRWIGNPYKKNALIDYDTLPYGDQVGNQ
[1]
  binding: binds
[2]
  binding: binds

B6: DadA (enzyme, UniProt P0A6J5 1-432)
chain: MRVVILGSGVVGVASAWYLNQAGHEVTVIDREPGAALETSAANAGQISPGYAAPWAAPGVPLKAIKWMFQRHAPLAVRLDGTQFQLKWMWQMLRNCDTSHYMENKGRMVRLAEYSRDCLKALRAETNIQYEGRQGGTLQLFRTEQQYENATRDIAVLEDAGVPYQLLESSRLAEVEPALAEVAHKLTGGLQLPNDETGDCQLFTQNLARMAEQAGVKFRFNTPVDQLLCDGEQIYGVKCGDEVIKADAYVMAFGSYSTAMLKGIVDIPVYPLKGYSLTIPIAQEDGAPVSTILDETYKIAITRFDNRIRVGGMAEIVGFNTELLQPRRETLEMVVRDLYPRGGHVEQATFWTGLRPMTPDGTPVVGRTRFKNLWLNTGHGTLGWTMACGSGQLLSDLLSGRTPAIPYEDLSVARYSRGFTPSRPGHLHGAHS
[1]
  binding: binds

B7: PpiD (protein, UniProt P0ADY1 1-623)
chain: MMDSLRTAANSLVLKIIFGIIIVSFILTGVSGYLIGGGNNYAAKVNDQEISRGQFENAFNSERNRMQQQLGDQYSELAANEGYMKTLRQQVLNRLIDEALLDQYARELKLGISDEQVKQAIFATPAFQVDGKFDNSRYNGILNQMGMTADQYAQALRNQLTTQQLINGVAGTDFMLKGETDELAALVAQQRVVREATIDVNALAAKQPVTEQEIASYYEQNKNNFMTPEQFRVSYIKLDAATMQQPVSDADIQSYYDQHQDQFTQPQRTRYSIIQTKTEDEAKAVLDELNKGGDFAALAKEKSADIISARNGGDMGWLEDATIPDELKNAGLKEKGQLSGVIKSSVGFLIVRLDDIQPAKVKSLDEVRDDIAAKVKHEKALDAYYALQQKVSDAASNDTESLAGAEQAAGVKATQTGWFSKDNLPEELNFKPVADAIFNGGLVGENGAPGINSDIITVDGDRAFVLRISEHKPEAVKPLADVQEQVKALVQHNKAEQQAKVDAEKLLVDLKAGKGAEAMQAAGLKFGEPKTLSRSGRDPISQAAFALPLPAKDKPSYGMATDMQGNVVLLALDEVKQGSMPEDQKKAMVQGITQNNAQIVFEALMSNLRKEAKIKIGDALEQQ
[1]
  binding: binds

B8: SecD (protein, UniProt P0AG90 1-615)
chain: MLNRYPLWKYVMLIVVIVIGLLYALPNLFGEDPAVQITGARGVAASEQTLIQVQKTLQEEKITAKSVALEEGAILARFDSTDTQLRAREALMGVMGDKYVVALNLAPATPRWLAAIHAEPMKLGLDLRGGVHFLMEVDMDTALGKLQEQNIDSLRSDLREKGIPYTTVRKENNYGLSITFRDAKARDEAIAYLSKRHPDLVISSQGSNQLRAVMSDARLSEAREYAVQQNINILRNRVNQLGVAEPVVQRQGADRIVVELPGIQDTARAKEILGATATLEFRLVNTNVDQAAAASGRVPGDSEVKQTREGQPVVLYKRVILTGDHITDSTSSQDEYNQPQVNISLDSAGGNIMSNFTKDNIGKPMATLFVEYKDSGKKDANGRAVLVKQEEVINIANIQSRLGNSFRITGINNPNEARQLSLLLRAGALIAPIQIVEERTIGPTLGMQNIEQGLEACLAGLLVSILFMIIFYKKFGLIATSALIANLILIVGIMSLLPGATLSMPGIAGIVLTLAVAVDANVLINERIKEELSNGRTVQQAIDEGYRGAFSSIFDANITTLIKVIILYAVGTGAIKGFAITTGIGVATSMFTAIVGTRAIVNLLYGGKRVKKLSI
[1]
  binding: binds

B9: LpxA (enzyme, UniProt P0A722 1-262)
chain: MIDKSAFVHPTAIVEEGASIGANAHIGPFCIVGPHVEIGEGTVLKSHVVVNGHTKIGRDNEIYQFASIGEVNQDLKYAGEPTRVEIGDRNRIRESVTIHRGTVQGGGLTKVGSDNLLMINAHIAHDCTVGNRCILANNATLAGHVSVDDFAIIGGMTAVHQFCIIGAHVMVGGCSGVAQDVPPYVIAQGNHATPFGVNIEGLKRRGFSREAITAIRNAYKLIYRSGKTLDEVKPEIAELAETYPEVKAFTDFFARSTRGLIR
[1]
  binding: binds

B10: PhoP (protein, UniProt P23836 1-223)
chain: MRVLVVEDNALLRHHLKVQIQDAGHQVDDAEDAKEADYYLNEHIPDIAIVDLGLPDEDGLSLIRRWRSNDVSLPILVLTARESWQDKVEVLSAGADDYVTKPFHIEEVMARMQALMRRNSGLASQVISLPPFQVDLSRRELSINDEVIKLTAFEYTIMETLIRNNGKVVSKDSLMLQLYPDAELRESHTIDVLMGRLRKKIQAQYPQEVITTVRGQGYLFELR
[1]
  binding: binds

B11: KdsD (enzyme, UniProt P45395 1-328)
chain: MSHVELQPGFDFQQAGKEVLAIERECLAELDQYINQNFTLACEKMFWCKGKVVVMGMGKSGHIGRKMAATFASTGTPSFFVHPGEAAHGDLGMVTPQDVVIAISNSGESSEITALIPVLKRLHVPLICITGRPESSMARAADVHLCVKVAKEACPLGLAPTSSTTATLVMGDALAVALLKARGFTAEDFALSHPGGALGRKLLLRVNDIMHTGDEIPHVKKTASLRDALLEVTRKNLGMTVICDDNMMIEGIFTDGDLRRVFDMGVDVRQLSIADVMTPGGIRVRPGILAVEALNLMQSRHITSVMVADGDHLLGVLHMHDLLRAGVV
[1]
  binding: binds

B12: FabD (enzyme, UniProt P0AAI9 1-309)
chain: MTQFAFVFPGQGSQTVGMLADMAASYPIVEETFAEASAALGYDLWALTQQGPAEELNKTWQTQPALLTASVALYRVWQQQGGKAPAMMAGHSLGEYSALVCAGVIDFADAVRLVEMRGKFMQEAVPEGTGAMAAIIGLDDASIAKACEEAAEGQVVSPVNFNSPGQVVIAGHKEAVERAGAACKAAGAKRALPLPVSVPSHCALMKPAADKLAVELAKITFNAPTVPVVNNVDVKCETNGDAIRDALVRQLYNPVQWTKSVEYMAAQGVEHLYEVGPGKVLTGLTKRIVDTLTASALNEPSAMAAALEL
[1]
  binding: binds

Reference: PMC6339880
